Data: PubChem BioAssay AID1487 (National Center for Advancing Translational Sciences (NCATS), 2009)
The list shows a part of the results. These are further read-outs of the screen, such as a control signal, another cell line or another target. No call is given for them. The list favours compounds with an active or inconclusive main result. Potencies come from curve fits of mixed quality, noted in brackets.

Test: qHTS Assay for Modulators of Lamin A Splicing
Settings: HeLa LMNA splicing GFP/RFP minigene ratio, 48 h
Procedure, shortened: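 S3 HeLa stable clones carrying a lamin A-EGFP splicing minigene plus DsRed2 were seeded at 600 cells/well in Opti-MEM with 2% FBS, pin-dosed and incubated 48 h at 37°C. Acumen cytometry (488 nm) gave the GFP/RFP total-intensity ratio.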

[1] = measured here: GFP splicing reporter channel
[2] = measured here: RFP viability control channel

SMILES	AC50 [1]	AC50 [2]
Cn1cnnc1SCCNS(=O)(=O)c1ccccc1	0.501 µM [falling, single point]	
Cc1ccccc1NC(=O)COC(=O)c1ccc(CSc2ccc(Cl)cc2)cc1	35.5 µM [falling, single point]	20 µM [falling, single point]
COc1ccc(-c2[nH]ncc2CNC(C)CCn2cccn2)cc1F (centres undefined)	0.178 µM [rising, full curve, poor fit]	1.41 µM [rising, single point]
CCOC(=O)CNC(=O)CSc1cc(C)nc2ccc(OC)cc12	22.4 µM [rising, single point]	
Cn1c(=O)c(-c2ccc(Cl)cc2)nc2cnc(OCc3ccccc3)nc21	17.8 µM [falling, partial curve, poor fit]	15.8 µM [falling, partial curve]
Cc1ccc(-n2cnc3cc(C(=O)NCc4ccc(F)cc4)ccc32)c(C)c1	0.0112 µM [rising, full curve, poor fit]	
C=CCOC(=O)C1=C(C)NC(SCC(=O)Nc2nccs2)=C(C#N)C1c1cccs1 (centres undefined)		1.58 µM [falling, partial curve, poor fit]
CCOC(=O)c1cccc(NS(=O)(=O)c2ccc3[nH]c4c(c3c2)CCCC4)c1	22.4 µM [falling, partial curve]	35.5 µM [falling, partial curve, poor fit]
Cc1ccccc1N1C(=O)c2cc(S(N)(=O)=O)c(Cl)cc2N[C@H]1C		0.00398 µM [falling, full curve, poor fit]
Cc1cc(NC(=O)CCC(=O)N(c2ccc(F)cc2)C2(C(=O)NC3CCCCC3)CCCC2)no1	11.2 µM [rising, partial curve]	14.1 µM [rising, single point]
Fc1ccc(NCc2nnc3n2CCCCC3)cc1	4.47 µM [rising, single point]	2.82 µM [rising, partial curve]
Cc1nc2ncccn2c1-c1csc(Nc2ccccc2)n1		15.8 µM [rising, partial curve, poor fit]
CCc1ccc(OCC2c3cc(OC)c(OC)cc3CCN2C(=S)NCCOC)cc1 (centres undefined)	12.6 µM [rising, single point]	15.8 µM [rising, partial curve]
CCC(CC)C(=O)Nc1ccccc1SCc1cc(=O)c2cccc(C)c2[nH]1	1 µM [rising, full curve]	1.41 µM [rising, full curve, poor fit]
Cc1cc(=O)[nH]c(N/N=C/c2ccc(Cl)c([N+](=O)[O-])c2)n1	0.0794 µM [falling, partial curve, poor fit]	0.02 µM [falling, partial curve, poor fit]
O=S(=O)(NCc1ccc(Cl)cc1)c1ccc2[nH]c3c(c2c1)CCCC3	35.5 µM [falling, single point]	35.5 µM [falling, single point]
COc1cc(OC)c(C2C(C#N)=C(N)OC3=C2C(=O)CC(C)(C)C3)cc1OC (centres undefined)	0.355 µM [falling, partial curve]	
COC(=O)c1sc2ccccc2c1C(=O)OC		0.708 µM [falling, single point]
C=CCn1c(C)cc(C2=NNC(=NC(C)(C)C)SC2)c1C		10 µM [rising, partial curve, poor fit]

In a second layout: entries from further up.
SMILES | AC50 [1] | AC50 [2]
Cn1cnnc1SCCNS(=O)(=O)c1ccccc1 | 0.501 µM [falling, single point] | 
Cc1ccccc1NC(=O)COC(=O)c1ccc(CSc2ccc(Cl)cc2)cc1 | 35.5 µM [falling, single point] | 20 µM [falling, single point]
CCOC(=O)CNC(=O)CSc1cc(C)nc2ccc(OC)cc12 | 22.4 µM [rising, single point] | 
Cn1c(=O)c(-c2ccc(Cl)cc2)nc2cnc(OCc3ccccc3)nc21 | 17.8 µM [falling, partial curve, poor fit] | 15.8 µM [falling, partial curve]
Cc1ccc(-n2cnc3cc(C(=O)NCc4ccc(F)cc4)ccc32)c(C)c1 | 0.0112 µM [rising, full curve, poor fit] | 
C=CCOC(=O)C1=C(C)NC(SCC(=O)Nc2nccs2)=C(C#N)C1c1cccs1 (centres undefined) |  | 1.58 µM [falling, partial curve, poor fit]
CCOC(=O)c1cccc(NS(=O)(=O)c2ccc3[nH]c4c(c3c2)CCCC4)c1 | 22.4 µM [falling, partial curve] | 35.5 µM [falling, partial curve, poor fit]
Cc1ccccc1N1C(=O)c2cc(S(N)(=O)=O)c(Cl)cc2N[C@H]1C |  | 0.00398 µM [falling, full curve, poor fit]
Cc1nc2ncccn2c1-c1csc(Nc2ccccc2)n1 |  | 15.8 µM [rising, partial curve, poor fit]
CCc1ccc(OCC2c3cc(OC)c(OC)cc3CCN2C(=S)NCCOC)cc1 (centres undefined) | 12.6 µM [rising, single point] | 15.8 µM [rising, partial curve]
CCC(CC)C(=O)Nc1ccccc1SCc1cc(=O)c2cccc(C)c2[nH]1 | 1 µM [rising, full curve] | 1.41 µM [rising, full curve, poor fit]
Cc1cc(=O)[nH]c(N/N=C/c2ccc(Cl)c([N+](=O)[O-])c2)n1 | 0.0794 µM [falling, partial curve, poor fit] | 0.02 µM [falling, partial curve, poor fit]
O=S(=O)(NCc1ccc(Cl)cc1)c1ccc2[nH]c3c(c2c1)CCCC3 | 35.5 µM [falling, single point] | 35.5 µM [falling, single point]
COc1cc(OC)c(C2C(C#N)=C(N)OC3=C2C(=O)CC(C)(C)C3)cc1OC (centres undefined) | 0.355 µM [falling, partial curve] | 
COC(=O)c1sc2ccccc2c1C(=O)OC |  | 0.708 µM [falling, single point]
C=CCn1c(C)cc(C2=NNC(=NC(C)(C)C)SC2)c1C |  | 10 µM [rising, partial curve, poor fit]

Next part:

SMILES	AC50 [1]	AC50 [2]
Oc1ccccc1Nc1nc(NCC2CCCO2)c2ccccc2n1 (centres undefined)	1 µM [rising, partial curve]	22.4 µM [rising, single point]
COCC(=O)Nc1ccccc1-c1ccccc1	1.58 µM [rising, full curve, poor fit]	
Cc1ccc2c(c1)c1c3n2CCN[C@H]3CCC1	14.1 µM [falling, single point]	
COc1ccc(NC(=O)c2[nH]c(C)c(C(C)=O)c2C)cc1S(=O)(=O)N1CCOCC1		35.5 µM [rising, single point]
O=C(Cc1cccs1)NNC(=S)NC(=O)c1ccc(F)c(F)c1		35.5 µM [rising, single point]
Cc1ccc(C(NC(=O)NCCCN2CCOCC2)=C(Cl)Cl)cc1F	3.16 µM [falling, single point]	
COc1ccc(/C=c2/sc3n(c2=O)C(c2ccccc2OC)C2=C(N=3)c3ccccc3CC2)cc1O (centres undefined)	35.5 µM [falling, single point]	35.5 µM [falling, single point]
Nc1ccc2ncccc2c1N		20 µM [rising, partial curve]
COCCCNC(=O)c1ccc2c(c1)nc(C)n2-c1cccc(C)c1	0.00316 µM [falling, full curve, poor fit]	
c1csc(Cn2nnnc2CN2CCN(c3nc4ccccc4s3)CC2)c1		35.5 µM [rising, single point]
CCN1/C(=C/c2ccc3cc(C)ccc3[n+]2CC)Sc2ccccc21	0.447 µM [rising, full curve, poor fit]	0.282 µM [rising, partial curve, poor fit]
CC(=O)Nc1ccc(S(=O)(=O)Oc2ccc3c(c2)C(C)=CC(C)(C)N3)cc1		2.51 µM [rising, full curve]
NS(=O)(=O)c1ccc(CCNC(=O)c2ccccc2[N+](=O)[O-])cc1		0.141 µM [rising, full curve]
Nc1ccc(N2C(=O)c3ccccc3C2=O)c(Cl)c1	11.2 µM [rising, partial curve]	0.00501 µM [falling, full curve, poor fit]
COc1ccc(N2CCN(CCCNC(=O)c3cc4sccc4n3C)CC2)cc1		0.631 µM [rising, partial curve]
O=C(CCN1CCC(c2cccs2)=N1)c1cccs1		17.8 µM [falling, single point]
COc1ccccc1CNc1ncncc1-c1ccc2c(c1)OCO2	17.8 µM [falling, partial curve]	17.8 µM [falling, single point]
O=C(Nc1ccc2oc(-c3ccccc3)nc2c1)c1ccco1	20 µM [rising, single point]	
CC1C/C(=C/c2cccs2)C(=O)/C(=C/c2cccs2)C1 (centres undefined)	35.5 µM [rising, single point]	35.5 µM [rising, single point]

SMILES	AC50 [1]	AC50 [2]
Cc1ccc(Cl)cc1NC(=O)c1ccc(NC(=O)CCC(=O)O)cc1		1.12 µM [rising, partial curve, poor fit]
c1ccc2c(c1)[nH]c1c(NCC3CCCO3)ncnc12 (centres undefined)		11.2 µM [rising, partial curve]
CCn1c(=N)n(CC(=O)C23CC4CC(CC(C4)C2)C3)c2ccccc21		31.6 µM [rising, single point]
COc1ccc(CN=C2NC(=O)CC(C(=O)Nc3cc(C)cc(C)c3)S2)cc1 (centres undefined)	14.1 µM [rising, single point]	17.8 µM [rising, partial curve, poor fit]
CSc1c(SCc2ccccc2)cnn(Cc2ccccc2)c1=O	14.1 µM [rising, partial curve, poor fit]	15.8 µM [rising, single point]
Cc1cc(C)c[n+](C2=C([O-])c3ccccc3C(=O)/C2=N\S(=O)(=O)c2cccs2)c1		5.62 µM [rising, single point]
c1ccc(Nc2nc(N3CCCC3)nc(N3CCCC3)n2)cc1		28.2 µM [rising, single point]
Cc1ccc(S(=O)(=O)/N=C/N(C)C)cc1		2.24 µM [rising, partial curve, poor fit]
Cc1ccc(/C=C/C(=O)N2CCC(Cc3ccccc3)CC2)cc1	35.5 µM [rising, single point]	31.6 µM [rising, partial curve]
CCOC(=O)c1c(CN(C)C)n(-c2ccccc2)c2cc(Br)c(OC)cc12	15.8 µM [rising, partial curve, poor fit]	20 µM [rising, partial curve]
c1ccc(Nc2nnc(SCc3cccc4ccccc34)s2)cc1		31.6 µM [rising, single point]
Cc1ccc(CN2CCN(/N=C/c3cccnc3)CC2)c(C)c1		35.5 µM [rising, single point]
CC1(C)OC(C)(C)/C(=C/Nc2ccccc2)C1=O	25.1 µM [rising, single point]	31.6 µM [rising, single point]
COc1ccccc1CC(=O)Nc1ccc(Cl)cc1C(=O)O	35.5 µM [falling, single point]	
O=c1c2cc(NC(=S)NCCCN3CCC(Cc4ccccc4)CC3)ccc2nc2n1CCCCC2	22.4 µM [falling, partial curve, poor fit]	
Cc1oc2c(c1C(=O)Nc1cccc3ccccc13)CCCC2		8.91 µM [rising, partial curve, poor fit]
CCOc1ccc(OCC)c(NC(=O)CN2CCC(NC(=O)c3cccc(F)c3)CC2)c1	31.6 µM [rising, single point]	25.1 µM [rising, single point]
CC(=O)Nc1ccc(S(=O)(=O)NC(C(=O)O)C2=CCC=CC2)cc1 (centres undefined)	4.47 µM [falling, single point]	3.16 µM [falling, single point]
